Reference: article PMC7862700
This is one part of the list. Construct or isoform of the protein are uncertain.

target: T1, ELF2 (UniProt Q15723); assay: DAPPL (digital affinity profiling via proximity ligation, sequencing); details: 10 mM Tris-HCl pH 7.5, 50 mM NaCl, 1 mM DTT, 4% glycerol, room temperature, 30 min; GST-TFs on glutathione beads, 16-mer random dsDNA library, 0.1% …; high values mean tight binding; double strand, one strand shown; scale: fold enrichment (6-mer frequency, TF over GST control)
T1 sequence: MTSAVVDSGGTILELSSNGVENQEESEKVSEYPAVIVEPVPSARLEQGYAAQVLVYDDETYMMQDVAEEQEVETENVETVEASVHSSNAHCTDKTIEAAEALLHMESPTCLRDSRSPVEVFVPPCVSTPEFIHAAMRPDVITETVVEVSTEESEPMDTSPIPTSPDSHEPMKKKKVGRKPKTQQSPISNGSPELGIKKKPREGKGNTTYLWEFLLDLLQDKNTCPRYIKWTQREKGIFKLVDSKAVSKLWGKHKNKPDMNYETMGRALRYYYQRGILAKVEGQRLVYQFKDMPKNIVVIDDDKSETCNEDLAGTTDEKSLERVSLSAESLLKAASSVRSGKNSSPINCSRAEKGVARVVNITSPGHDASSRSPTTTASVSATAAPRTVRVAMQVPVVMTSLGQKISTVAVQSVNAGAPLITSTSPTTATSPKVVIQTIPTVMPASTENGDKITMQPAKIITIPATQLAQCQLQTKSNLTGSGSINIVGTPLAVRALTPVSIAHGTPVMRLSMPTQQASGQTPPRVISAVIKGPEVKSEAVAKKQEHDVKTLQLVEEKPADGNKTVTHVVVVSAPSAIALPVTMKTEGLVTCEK

| Sequence | binding signal |
| --- | --- |
| TCCCTG | 1.22 |
| GGTACT | 1.36 |
| AAGCTG | 1.1 |
| ATGTGG | 1.17 |
| ATGCGC | 1.11 |
| CACTCC | 1.2 |
| TAAGTC | 0.894 |
| CACCGA | 0.981 |
| GCCAGA | 0.638 |
| AAAATA | 1.25 |
| AAACTT | 1.32 |
| AAGAAC | 1.26 |
| CTTTAC | 1.32 |
| CTCGTT | 1.21 |
| CACTGC | 1.37 |
| TGCTTA | 1.01 |
| GCATTT | 1.45 |
| TATAGG | 1.17 |
| TGTTAC | 1.41 |
| TAATAT | 1.3 |

Quoted at random: two entries already listed, in no set order.

| Sequence | binding signal |
| --- | --- |
| TAAGTC | 0.894 |
| CACCGA | 0.981 |

The results go on:

| Sequence | binding signal |
| --- | --- |
| ACTATC | 1.1 |
| AGCTCG | 0.972 |
| GCAATC | 1.01 |
| TGAATG | 1.11 |
| AATCGT | 0.846 |
| GGGTTT | 1.11 |
| TGGGCT | 1.36 |
| ACTAGA | 0.908 |
| TAAACC | 1.26 |
| TCAATC | 0.976 |
| AAGTTA | 1.24 |
| TCGAGA | 0.582 |
| TATATC | 1.7 |
| GGTCTC | 2.16 |
| CAAGCA | 1.17 |
| ATATCA | 1.15 |
| GGATAA | 0.816 |
| ATAAAA | 1.15 |
| GATATT | 1.21 |
| TTTCGC | 1.14 |
